Reference: the supplement of paper PMC12578635
Some of the results follow. No stated cut-off is given here; in the data, active = 150% or more and inactive = the rest. Many values rest on one well or one pass, so single values are uncertain.

System: Staphylococcus aureus JE2-lux inside RAW 264.7 macrophages
Assay: intracellular bacterial bioluminescence relative to DMSO vehicle; higher = higher intracellular bacterial metabolic activity
Details: 10 µM; treatment time 4 h; gentamicin 50 µg/ml

Intracellular bacterial bioluminescence, inactive:
CC1C(=O)N2CCCc3cc(NC(=O)C(=O)NCCC4=CCCCC4)cc1c32 (configuration not stated) 105%
CCCCOC(=O)c1ccc(NC(=O)c2cc(-c3ccc4c(c3)OCCO4)on2)cc1 104%
Cn1c(=O)[nH]c2cc(-c3noc(CNC(=O)c4ccccc4)n3)ccc21 106%
CC(=O)Nc1cccc(NC(=O)C(=O)Nc2ccc3c(c2)N(C(=O)C2CC2)CCC3)c1 55%
COc1ccc(C(=O)N2c3cc(CNC(=O)c4cc(CC(C)C)on4)ccc3CC2C)cc1 (configuration not stated) 52.1%
Cc1csc(SCc2cc(=O)c(OC(=O)Cc3ccc(F)cc3)co2)n1 84.1%
Cc1nc2ccccc2c(=O)n1-c1ccc(NS(=O)(=O)c2ccc3c(c2)OCCO3)cc1 125%
CCOc1ccc(N2CCn3c2nc2c3c(=O)n(CC(=O)O)c(=O)n2C)cc1 110%
O=C(CSC1=NS(=O)(=O)c2cc(F)ccc2N1)NCc1ccc2c(c1)OCO2 139%
COc1ccc(Cc2nnc3sc(SCC(=O)Nc4ccccc4)nn3c2=O)cc1OC 84.5%
CCOc1ccc(CCNC(=O)CN2c3ccccc3S(=O)(=O)c3ccccc32)cc1OCC 75.2%
CCOC(=O)C1CCCN(c2ncnc3scc(-c4ccc(Cl)cc4)c23)C1 (configuration not stated) 63.7%
Cn1c(=O)c2c(nc3n2CC(C(C)(C)C)=NN3CCN2CCOCC2)n(C)c1=O 132%
COc1cccc(-c2noc(NCCC(C)C)n2)c1 106%
Cc1ccc(-n2nnc3c(SCC(=O)N4CCOCC4)ncnc32)cc1 107%
CCOC(=O)c1csc(-n2nc3c(c2C(F)(F)F)CCCCC3)n1 44.6%
NC(=O)c1ccccc1NC(=O)CCn1c(=O)oc2ccccc21 87.8%
O=C(O)c1ccc2c(c1)C(=O)N(C(CC1=C[NH2+]C=N1)C(=O)[O-])C2=O (configuration not stated) 94.2%
CC(c1ccccc1)n1c(CN2CCCCC2)nc2ccccc21 (configuration not stated) 78.9%
Cc1ccc(C)c(CC(=O)Nc2nc3ccc4nc(C)sc4c3s2)c1 71.4%
Cc1cc(C)c(C(=O)c2sc3nc(C)cc(C)c3c2N)c(C)c1 86.7%
O=C(Nc1ccccc1F)N1CCC(c2nc3cc(Cl)ccc3[nH]2)CC1 111%
Cc1cc(NC(=O)CSc2nnc(NC(=O)C3CC(=O)N(c4ccc(C)c(C)c4)C3)s2)no1 (configuration not stated) 88.6%
Cc1nn2cc(C#N)c(-c3ccccc3)nc2c1-c1ccccc1 119%
CCn1c2c(c(=O)[nH]c1=O)C(c1cccs1)C1=C(COC1=O)N2 (configuration not stated) 106%
CCCCCn1c(SCC(=O)CC(=O)OCC)nc2cc(C(=O)NCc3ccco3)ccc2c1=O 89.2%
CCOc1ccccc1NCc1nc2nc(C)cc(C)n2n1 84.9%
NC(=O)c1cc2cc(Cl)ccc2o/c1=N\c1cccc(C(F)(F)F)c1 88.3%
COCCn1c(=O)[nH]c2ccccc2/c1=N\C(=O)Nc1ccccc1C#N 117%
COc1cccc(-c2cc(C(F)(F)F)n3ncc(C(=O)O)c3n2)c1 111%
O=c1oc2cc([N+](=O)[O-])ccc2c2ccc([N+](=O)[O-])cc12 94.2%
COc1ccc(S(=O)(=O)N2CCOCC2)cc1C(=O)NCc1ccc2c(c1)OCO2 106%
COc1ccc2nc(Nc3nc4c(s3)CCCC4)sc2c1 68.8%
Cc1nc(Nc2ccc(NS(=O)(=O)c3ccc(F)cc3F)cc2)cc(N(C)C)n1 92.8%
Cc1ccc(C)c2[nH]c(=O)c(CCNC(=O)c3ccccc3F)cc12 104%
CCOc1ccc2c(c1)sc1nc(-c3ccc(C(C)C)cc3)c(NCCOC)n12 97.4%
CCCn1ncc(C)c1NC(=O)Cn1nc2c(C)cc3ccc(OC)cc3n2c1=O 91.3%
CCOc1ccc(NC(=O)Cn2c(=O)c3cccnc3n(-c3ccccc3)c2=O)cc1 105%
Cc1c(S(=O)(=O)N2CCC(c3nnc(C(=O)Nc4ccccc4)s3)CC2)cnn1C(F)F 85.2%
COc1ccc(CC(=O)N2CCN(c3c(C)n(C)c(=O)n(C)c3=O)CC2)cc1OC 126%
Cc1ccccc1-n1cc(-c2ccccc2)c2c(NC3CCCCC3)ncnc21 108%
O=C(c1cccnc1)N1CCc2c([nH]c3ccccc23)C1c1ccc(Cl)cc1 (configuration not stated) 95.4%
O=S(=O)(c1cn(Cc2noc(-c3cc4cc(Cl)ccc4[nH]3)n2)cn1)N1CCOCC1 117%
CCc1noc2nc(C(=O)O)nc(N3CCOCC3)c12 117%
CC1(C)Cc2c(sc(NC(=O)c3ccc4ncsc4c3)c2C(N)=O)C(C)(C)N1 106%
Cc1cccc(C2Oc3ccccc3C3CC(c4cccc(NS(C)(=O)=O)c4)=NN32)c1 (configuration not stated) 91.3%
COCCNC(=O)c1nn(C)c2c1CCc1ccccc1-2 80.3%
COc1ccc(Cl)c2sc(N3CCN(C(=O)c4cccc(N5C(=O)CCC5=O)c4)CC3)nc12 129%
COc1cccc(C(=O)NCC(=O)N/N=C/c2cccs2)c1 94.7%
CCc1cc2c(=O)n(-c3ccc(Cl)cc3)c(SCC(=O)c3cccs3)nc2s1 109%
Cc1cc(C(=O)NC(c2ccccc2)c2ccnn2C)c2cccc(Cl)c2n1 (configuration not stated) 103%
O=C(CSC1=NS(=O)(=O)c2ccccc2N1)Nc1ccc2c(c1)OCCO2 128%
CC(=O)c1c(C)nn(CC(O)COc2ccc(C(=O)c3ccc(Cl)cc3)cc2)c1C (configuration not stated) 63.4%
Clc1cccc2sc(N3CCN(c4ccccc4)CC3)nc12 79.7%
CCOc1ccc(Oc2nc(C)nc3sc4c(c23)CCCC4)cc1 116%
CCS(=O)(=O)c1ccccc1C(=O)Nc1nc2c(s1)C(=O)CC(C)(C)C2 105%
O=C(C1CCCN(c2nccnc2Oc2ccccc2)C1)N1CCN(c2ccccc2)CC1 (configuration not stated) 32.9%

Random excerpt: five records from the list, in no set order.
Intracellular bacterial bioluminescence, inactive:
CCCn1ncc(C)c1NC(=O)Cn1nc2c(C)cc3ccc(OC)cc3n2c1=O 91.3%
O=C(C1CCCN(c2nccnc2Oc2ccccc2)C1)N1CCN(c2ccccc2)CC1 (configuration not stated) 32.9%
O=C(c1cccnc1)N1CCc2c([nH]c3ccccc23)C1c1ccc(Cl)cc1 (configuration not stated) 95.4%
Cc1cccc(C2Oc3ccccc3C3CC(c4cccc(NS(C)(=O)=O)c4)=NN32)c1 (configuration not stated) 91.3%
Cn1c(=O)c2c(nc3n2CC(C(C)(C)C)=NN3CCN2CCOCC2)n(C)c1=O 132%
